This test deals with SARM1 (50-724) (Homo sapiens, UniProt Q6SZW1). The test is described as follows: SARM1 (50-724) enzymatic assay (LC-MS/MS). Particulars: read-out: IC50 (SARM1 inhibitory activity), Purified SARM1 (50-724) 2 nM, NMN as activator, NAD+ as substrate, 1 h at room temperature. How it is done: An enzymatic assay was performed in a 384-well plate using Dulbecco's phosphate-buffered saline (PBS) as the reaction buffer. Purified SARM1 (50-724) with a final concentration of 2 nM was pre-incubated with a test compound at […] final assay concentration for 15 min at room temperature. The reaction was initiated by adding a mixture of […] nicotinamide mononucleotide (NMN) as activator and […] NAD^+ as substrate. After 1 h of incubation at room temperature, the reaction was terminated with 10 times volume of 70% acetonitrile, and then centrifuged at 3800 rpm for 10 min. The samples were analyzed using LC-MS/MS after diluted to a proper concentration by 10 mM ammonium acetate (pH 9.75).
In Table 2, activity is provided as follows: A: IC50≤100 nM; B: 100 nM<IC50≤500 nM; C: 500 nM<IC50≤1000 nM; D: IC50>1000 nM.

Chains of the proteins cited; added tags and fusions are not shown. Residues count along the entry.
UniProt Q6SZW1, 50-724 limits assumed: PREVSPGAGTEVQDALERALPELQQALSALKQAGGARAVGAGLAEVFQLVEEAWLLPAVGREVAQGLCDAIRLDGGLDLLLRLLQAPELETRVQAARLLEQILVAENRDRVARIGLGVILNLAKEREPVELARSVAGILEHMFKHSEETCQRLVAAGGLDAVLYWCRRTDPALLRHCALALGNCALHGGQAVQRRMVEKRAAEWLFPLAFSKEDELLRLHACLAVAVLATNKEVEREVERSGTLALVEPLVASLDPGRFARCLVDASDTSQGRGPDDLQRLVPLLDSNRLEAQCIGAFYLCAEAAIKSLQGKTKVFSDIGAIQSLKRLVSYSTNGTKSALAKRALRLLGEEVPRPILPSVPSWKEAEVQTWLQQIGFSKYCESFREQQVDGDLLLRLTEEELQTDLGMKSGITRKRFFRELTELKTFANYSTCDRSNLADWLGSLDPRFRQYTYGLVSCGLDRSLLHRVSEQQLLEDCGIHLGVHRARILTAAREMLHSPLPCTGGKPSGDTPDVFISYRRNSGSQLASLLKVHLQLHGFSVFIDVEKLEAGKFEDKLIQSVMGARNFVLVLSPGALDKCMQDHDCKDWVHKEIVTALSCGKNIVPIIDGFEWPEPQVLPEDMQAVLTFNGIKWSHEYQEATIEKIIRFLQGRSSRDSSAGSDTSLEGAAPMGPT

Structures were worked out from names or drawings and are uncertain.

Consider `FC(F)(F)c1ccc2[nH]c(-c3nncn3-c3cc(-c4ncc[nH]4)ncc3Cl)nc2c1`, for which the IC50 is less than 100 nM.
For the molecule `CC(c1cc(F)c2[nH]c(-c3nncn3-c3cnccc3C(F)(F)F)nc2c1)c1ccccn1` (centres unmarked), the IC50 is less than 100 nM.

The values above are taken from patent publication US20260258064A1 (SIRONAX LTD., priority 2023, published 2026).
